± gives the standard deviation. The list shows a part of the results, in another mix than the full data. Many of these values have a large error.

The subject of the experiment is EfPiwi piRISC loaded with piRNA #1 (26 nt). Put plainly: pre-steady-state target cleavage rate (min^-1); guide: piRNA #1 5'p-UGAGGUAGUAGGUUGUAUAGUAUCCA; MIWI and MILI are mouse PIWI proteins and EfPiwi is from a freshwater sponge; tags in brackets are library labels; higher = faster piRNA-guided slicing of the target. Conditions: auxiliary factor: 500 nM Ephydatia muelleri Gtsf1. The essentials: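 The pre-steady-state cleavage rate was obtained by Cleave-'n-Seq with a burst-and-steady-state fit. A transcribed, DNA-blocked target RNA library (0.1 nM) was mixed with 1 nM active affinity-purified piRISC carrying one synthetic guide, with or without 500 nM GTSF1 partner protein, in HEPES–potassium acetate buffer at 33 °C for 0–8 or 0–960 min. Uncleaved targets were sequenced and normalised to depth and to weakly complementary targets, with three trials pooled and k3 capped at 0.0001 min^-1.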
For the sequence GGAGACCUAUCUAUACAACCUACUACCAGA, the “pre-steady-state target cleavage rate” value amounted to 0.00327 ± 0.0026. GGAGACGAUACUAUACAACCUACUAUCCUCA: the “pre-steady-state target cleavage rate” value is 0.0049 ± 0.0014. Take GGAGACCAUACUAUACAACGUACUACGUCA: the “pre-steady-state target cleavage rate” value stood at 0.00198 ± 0.0022. With GGAGAGGAUACUUUAGAACCUACUACCUCA, the “pre-steady-state target cleavage rate” value was found to be 0.00155 ± 0.0029.

Regarding GGAGAGGAUACUAUACAACCUAUUACCUCA, the “pre-steady-state target cleavage rate” value worked out at 0.153 ± 0.056. On to GGAGAGGAUAGAAUACAACCUACUACCUCA, for which the “pre-steady-state target cleavage rate” value turned out to be 0.00366 ± 0.004. Consider GGAGAGGUUACUAUACUACCUACUACCUCA, for which the “pre-steady-state target cleavage rate” value was 0.00488 ± 0.0024.

For GGAGACCUAACUAUACAACCUACUACAUCA, the “pre-steady-state target cleavage rate” value was determined as 0.0146 ± 0.0083. With GGAGACCUAUCUAUACAACCUACUAGCCUCA the figure was 0.00166 ± 0.0056; with GGAGACCUAUGUAUACGACCUACUACCUCA, 0.00235 ± 0.004. Regarding GGAGAGGAUUCUAUACAACCUUCUACCUCA, the “pre-steady-state target cleavage rate” value turned out to be 0.00275 ± 0.0034.

For the sequence GGAGACCUAUGUAUACAACCUACUUACCUCA, the “pre-steady-state target cleavage rate” value came out at 0.000314 ± 0.011. As to GGAGACCUAUGAUAUGUACCUACUACCUUA, the “pre-steady-state target cleavage rate” value was 0.000197 ± 0.014. The figure for GGAGAGGUUACUAUACAACCUACUACCUCA is 0.0625 ± 0.025; for GGAGUGGAUACUAUACAACCUACUACCUA it is 0.249 ± 0.092. With GGAGACGAUACUUUACUACCUACUACCUCA, the “pre-steady-state target cleavage rate” value came to 0.00186 ± 0.0035. The figure for GGAGUGGAUAGUAUACAAGCUACUACCUCA is 0.00224 ± 0.0021; for GGAGACCUAACUAUACAACCUACUACGAGA it is 0.00515 ± 0.0032. The figure for GGAGACCUAACUAUACAAGGUACUACCUCA is 0.0019 ± 0.0033; for GGAGACGAUACUAUGACAACCUACUACCUCA it is 0.00896 ± 0.0044; for GGAGACCUAUGUAUACAACCUCACUACCUCA it is 0.000343 ± 0.019. With GGAGACCUAACUAUACAUCCUACUAGCUCA the figure was 0.00354 ± 0.0042; with GGAGACCAUACUAUACUAGCUACUACCUCA, 0.000516 ± 0.0069. Consider GGAGACCUAUGAUAUGUUCCUACUAUCUCA, for which the “pre-steady-state target cleavage rate” value came out at 0.000209 ± 0.011. GGAGACCUAACUAUACAACCUACUAACUCA: the “pre-steady-state target cleavage rate” value worked out at 0.00332 ± 0.0043. In the case of GGAGACCUAACUAUACUACGUACUACCUCA, the “pre-steady-state target cleavage rate” value amounted to 0.00178 ± 0.0047. GGAGACGAUACUUUACAACCAACUACCUCA: the “pre-steady-state target cleavage rate” value worked out at 0.00358 ± 0.0022. Turning to GGAGUGGAUAGUAAACAACCUACUACCUCA, the “pre-steady-state target cleavage rate” value was 0.00331 ± 0.0045.

On to GGAGAGGAUUCUAUACAACGUACUACCUCA, for which the “pre-steady-state target cleavage rate” value was 0.00249 ± 0.0021.

Take GGAGACCUAUCAAUACAACCUACUACCUCA: the “pre-steady-state target cleavage rate” value worked out at 0.00612 ± 0.0034. For GGAGUGGAUACUAUUCAACCUAGUACCUCA, the “pre-steady-state target cleavage rate” value was 0.00286 ± 0.0013.

As for GGAGACCUAUGUAUAGAACCUACUACGUCA, the “pre-steady-state target cleavage rate” value was determined as 0.000985 ± 0.0069.

With GGAGAGGAUACUAAACAACCUACUACGUCA, the “pre-steady-state target cleavage rate” value came out at 0.00195 ± 0.0024.

GGAGACCUAUCUAUACAACCAACUACCUCA: the “pre-steady-state target cleavage rate” value was determined as 0.00235 ± 0.0028. Regarding GGAGACCUAUGUUAUACAACCUACUACCUCA, the “pre-steady-state target cleavage rate” value worked out at 0.0122 ± 0.0063.

As to GGAGACCUAUCUAUACAACCUACUCCCUCA, the “pre-steady-state target cleavage rate” value was 0.00378 ± 0.0047. GGAGACCUUUCUAUACAACGUACUACCUCA: the “pre-steady-state target cleavage rate” value turned out to be 0.00139 ± 0.0023. Take GGAGUGGAUACUAUACAUCCUACUACCUGA: the “pre-steady-state target cleavage rate” value was 0.00497 ± 0.0018. For GGAGACCAUACUAUACUACCUACUACGUCA, the “pre-steady-state target cleavage rate” value stood at 0.0039 ± 0.0028.

Regarding “GGAGACCUAACUAUACAACGAUGAUGGAGA [g12:g21:cont:t1A]”, the “pre-steady-state target cleavage rate” value was 0.000162 ± 0.034.

(Values after the supplement of paper PMC10338343.)
